The values that follow come from PubChem BioAssay AID330 (DTP/NCI, 2004).

For the experiment, the system named is P388 leukemia ip, CD2F1 mice, survival T/C. Kind of experiment: NCI In Vivo Anticancer Drug Screen. Data for tumor model P388 Leukemia (intraperitoneal) in CD2F1 (CDF1) mice. The note with it: T/C endpoint: median survival time, higher T/C = longer survival.
Setting [1] is: dose: 100.0 mg/kg/injection, schedule: Q01DX009 (ip), vehicle: saline with Tween-80.
The mark [2] stands for this setting: dose: 200.0 mg/kg/injection, schedule: Q01DX009 (ip), vehicle: saline.
Setting [3] is: dose: 50.0 mg/kg/injection, schedule: Q01DX005 (ip), vehicle: saline with Tween-80.
The mark [4] stands for this setting: dose: 100.0 mg/kg/injection, schedule: Q01DX005 (ip), vehicle: saline with Tween-80.
The mark [5] stands for this setting: dose: 200.0 mg/kg/injection, schedule: Q01DX005 (ip), vehicle: saline with Tween-80.
[6] abbreviates: dose: 200.0 mg/kg/injection, schedule: Q04DX002 (ip), vehicle: saline with Tween-80.
Where [7] appears, read: dose: 400.0 mg/kg/injection, schedule: Q01DX001 (ip), vehicle: saline with Tween-80.
Where [8] appears, read: dose: 60.0 mg/kg/injection, schedule: Q01DX005 (ip), vehicle: saline with Tween-80.
Where [9] appears, read: dose: 120.0 mg/kg/injection, schedule: Q01DX005 (ip), vehicle: saline with Tween-80.
[10] abbreviates: dose: 200.0 mg/kg/injection, schedule: Q01DX009 (ip), vehicle: saline with Tween-80.
[11] abbreviates: dose: 400.0 mg/kg/injection, schedule: Q01DX009 (ip), vehicle: saline with Tween-80.
Setting [12] is: dose: 240.0 mg/kg/injection, schedule: Q01DX005 (ip), vehicle: Klucel (hydroxypropylcellulose) (HPC).
The mark [13] stands for this setting: dose: 200.0 mg/kg/injection, schedule: Q01DX009 (ip), vehicle: Klucel (hydroxypropylcellulose) (HPC).

The structures appear in SMILES notation. The list does not hold the whole screen: it is rich in T/C values a quarter to a half above the control, in often repeated tests (any T/C) and in doses without a T/C. Further doses and runs are listed elsewhere. T/C: endpoint of the treated group in % of that of the vehicle group. Some doses have a count of surviving animals in place of a T/C: the source holds a T/C of zero for them, seemingly a mark for toxic or unscored doses. Some survivor counts are full or nearly so, which does not show that the dose was tolerated: survival well below the control is almost never listed, so the zero probably covers shortened survival too. Counts of survivors are from the toxicity check (mostly the fifth day) where no day follows; animals may have died later. Schedule codes are those of the source, read here as Q, the interval in days (D) or hours (H), X, the number of doses. Some entries were tested several times; the values are given in rising order. For survival time, this PubChem deposit counts one and a half times the control or more as active, and values a quarter to a half above the control carry no call in these data; other NCI protocols may use other cut-offs.

For the compound `O=C1C=CC(=O)N1c1ccc(N2C(=O)C=CC2=O)cc1`, the survivor count is, setting by setting: (dose: 12.5 mg/kg/injection, schedule: Q01DX009 (ip), vehicle: distilled water + Tween-80) 3 of 6; (dose: 25.0 mg/kg/injection, schedule: Q01DX009 (ip), vehicle: distilled water + Tween-80) 0 of 6 and 2 of 6.

Regarding `CCCCCCCCCCCCCCCC[N+]1([O-])CCOCC1`, the survivor count under setting [1] was 5 of 6.

With `CC(=O)OC1CC[N+](C)(Cc2ccccc2)C1` (stereo unspecified), the survivor count under setting [2] is on record as 0 of 6.

Regarding `O=C(OCC(OC(=O)c1ccccc1)C(OC(=O)c1ccccc1)C(OC(=O)c1ccccc1)C(OC(=O)c1ccccc1)c1nn[nH]n1)c1ccccc1` (stereo unspecified), the survivor count reads like this: under setting [3], 6 of 6; under setting [4], 5 of 5; under setting [5], 5 of 5.

`NCC(O)COCc1ccccc1` (stereo unspecified): the survivor count by setting is: (dose: 200.0 mg/kg/injection, schedule: Q01DX001 (ip), vehicle: saline with Tween-80) 0 of 6; under setting [6], 1 of 6; under setting [7], 0 of 6.

With `CCOC(=O)C(=CNc1cc(C)c2[nH]c3ccc(Cl)cc3c2c1C)C(=O)OCC`, the survivor count is, setting by setting: under setting [8], 6 of 6; under setting [9], 6 of 6.

On to `COCCOCCN1CCN(CCCN2c3ccccc3Sc3ccc(C(F)(F)F)cc32)CC1`, for which the survivor count (dose: 6.0 mg/kg/injection, schedule: Q04DX003 (ip), vehicle: saline) is on record as 1 of 6. Further, the T/C (dose: 25.0 mg/kg/injection, schedule: Q04DX003 (ip), vehicle: saline) was 127 % of control.

`CCSCCNC(=O)[C@@]1(O)[C@H](O)[C@]2(CC)C=CCN3CC[C@@]4(c5cc([C@@]6(OC(C)=O)C[C@H]7C=C(CC)CN(CCc8c6[nH]c6ccccc86)C7)c(OC)cc5N(C)[C@@H]14)[C@@H]32`: the T/C reads like this: (dose: 1.0 mg/kg/injection, schedule: Q01DX001 (ip), vehicle: water) 129 % of control; (dose: 2.0 mg/kg/injection, schedule: Q01DX001 (ip), vehicle: water) 132 and 139 % of control; (dose: 4.0 mg/kg/injection, schedule: Q01DX001 (ip), vehicle: water) 149 % of control; (dose: 8.0 mg/kg/injection, schedule: Q01DX001 (ip), vehicle: water) 142 % of control. Also, the survivor count (dose: 16.0 mg/kg/injection, schedule: Q01DX001 (ip), vehicle: water) is recorded as 3 of 6.

Take `CCOC(=O)/C=C1/C(=O)OC2C1OC1OC(C)(C)OC12` (stereo unspecified): the survivor count runs as follows: (dose: 15.0 mg/kg/injection, schedule: Q01DX005 (ip), vehicle: saline with Tween-80) 1 of 6; under setting [8], 0 of 6; under setting [9], 0 of 6; (dose: 240.0 mg/kg/injection, schedule: Q01DX005 (ip), vehicle: saline with Tween-80) 0 of 6.

On to `CCCCCCCCCc1ccc(OCCOCCOCCOCCOCCOCCOCCOCCOCCOC(C)N2CCCC2=O)cc1` (stereo unspecified), for which the survivor count is listed as 1 of 6 under setting [1], 0 of 6 under setting [10] and 0 of 6 under setting [11].

Take `CSCCC([NH-])C(=O)O.CSCCC([NH-])C(=O)O.[Zn+2]` (stereo unspecified): under setting [5], the survivor count is given as 0 of 6.

Regarding `COC1=C(C)C(=O)c2[nH]c(Cl)c(C=O)c2C1=O`, under setting [7], the survivor count was 2 of 6.

`C=C1N(c2nc(Cl)nc(Cl)n2)c2ccccc2C1(C)C`: the survivor count under setting [1] is 5 of 6 and the survivor count under setting [10] is 1 of 6.

As for `Cc1cc(Cl)ccc1N1C(=O)[N+](C)(C)N=C1[O-]`, the survivor count (dose: 400.0 mg/kg/injection, schedule: Q04DX003 (ip), vehicle: saline) is 4 of 6.

For the compound `CC(=O)CC(c1ccccc1)C(C#N)c1ccccc1` (stereo unspecified), the survivor count is 6 of 6 (dose: 50.0 mg/kg/injection, schedule: Q04DX003 (ip), vehicle: Klucel (hydroxypropylcellulose) (HPC)); 6 of 6 (dose: 100.0 mg/kg/injection, schedule: Q04DX003 (ip), vehicle: Klucel (hydroxypropylcellulose) (HPC)); 6 of 6 (dose: 200.0 mg/kg/injection, schedule: Q04DX003 (ip), vehicle: Klucel (hydroxypropylcellulose) (HPC)).

As to `Cc1nc(-c2nc(C(=O)NCCC[S+](C)C)cs2)cs1`, the survivor count reads like this: (dose: 100.0 mg/kg/injection, schedule: Q01DX005 (ip), vehicle: saline) 0 of 6; (dose: 200.0 mg/kg/injection, schedule: Q01DX005 (ip), vehicle: saline) 0 of 6.

As for `CCCCOC(=O)[C@@H]1O[C@H]2OC=C[C@H]21`, the survivor count is, setting by setting: (dose: 25.0 mg/kg/injection, schedule: Q01DX005 (ip), vehicle: saline with Tween-80) 4 of 5; under setting [3], 5 of 5; under setting [4], 3 of 5; under setting [5], 0 of 5.

Consider `CCOC1OCN(c2ccccc2)CC1(C)C` (stereo unspecified), for which the T/C (dose: 50.0 mg/kg/injection, schedule: Q01DX009 (ip), vehicle: saline with Tween-80) is 126 % of control; the T/C under setting [1] was 138 % of control; the T/C under setting [10] is 147 % of control.

With `O=C(O)c1cc2c(c(C(=O)O)c1O)CCCC2`, the survivor count runs as follows: under setting [3], 0 of 5; under setting [4], 0 of 5; under setting [5], 0 of 5.

Turning to `CC(C)C(NC(=O)CN(C)C(=O)OCc1ccccc1)C(=O)O` (stereo unspecified), the survivor count under setting [5] is 3 of 6.

For `Cc1c(Br)c(C)[n+]([O-])n1O`, the survivor count under setting [12] was 3 of 6.

As to `Cc1c2oc3c(C)ccc(C(=O)NCCN4CCCCC4)c3nc-2c(C(=O)NCCN2CCCCC2)c(N)c1=O`, the survivor count under setting [13] is reported as 2 of 6.

Take `OCC1OC(n2cnc3c(=S)nc[nH]c32)CC1O` (stereo unspecified): the survivor count is 3 of 6 under setting [11] and 4 of 6 (dose: 600.0 mg/kg/injection, schedule: Q01DX009 (ip), vehicle: saline with Tween-80).

As to `Nc1ccc2c(n1)NCC/C2=N\Nc1ccc(F)cc1`, under setting [10], the survivor count is 3 of 6.

For the compound `CC(C)(C)N(N)Cc1ccccc1`, the survivor count under setting [2] was 1 of 6.

`CN(C)C(C#N)C(=O)c1ccccc1` (stereo unspecified): the survivor count under setting [13] is on record as 0 of 6.

With `Cc1nc2ccccc2c(=O)n1CC(=O)NNC(N)=S`, the survivor count runs as follows: (dose: 100.0 mg/kg/injection, schedule: Q04DX002 (ip), vehicle: saline with Tween-80) 3 of 6; under setting [6], 0 of 6; (dose: 400.0 mg/kg/injection, schedule: Q04DX002 (ip), vehicle: saline with Tween-80) 0 of 6.

As for `CCCCCCCCSc1nc(Nc2cc(C(C)(C)C)c(O)c(C(C)(C)C)c2)nc(SCCCCCCCC)n1`, the survivor count under setting [1] is 6 of 6.

Turning to `Cc1ccc(N2CCCCN(c3ccc(C)cc3)/C(c3ccccc3)=C\2c2ccccc2)cc1`, the survivor count is 5 of 5 (dose: 100.0 mg/kg/injection, schedule: Q01DX001 (ip), vehicle: Klucel (hydroxypropylcellulose) (HPC)) and 5 of 5 (dose: 200.0 mg/kg/injection, schedule: Q01DX001 (ip), vehicle: Klucel (hydroxypropylcellulose) (HPC)).

Take `O=S1(=O)C=C(c2ccccc2)S(=O)(=O)C=C1c1ccccc1`: the survivor count (dose: 400.0 mg/kg/injection, schedule: Q04DX003 (ip), vehicle: saline with Tween-80) was 6 of 6.

Turning to `COC(=O)C1=C(C(=O)OC)P2(C)(C)ON(c3ccccc3)C(C(=O)c3ccccc3)N2C1(c1ccccc1)c1ccccc1` (stereo unspecified), the survivor count runs as follows: (dose: 50.0 mg/kg/injection, schedule: Q01DX005 (ip), vehicle: Klucel (hydroxypropylcellulose) (HPC)) 6 of 6; (dose: 100.0 mg/kg/injection, schedule: Q01DX005 (ip), vehicle: Klucel (hydroxypropylcellulose) (HPC)) 5 of 6; (dose: 200.0 mg/kg/injection, schedule: Q01DX005 (ip), vehicle: Klucel (hydroxypropylcellulose) (HPC)) 6 of 6.

Regarding `COc1cc2ccc1-c1cc(ccc1O)CC1c3cc4c(cc3CCN1C)Oc1c(OC)cc3c(c1O4)C(C2)N(C)CC3` (stereo unspecified), the survivor count is 4 of 6 (dose: 120.0 mg/kg/injection, schedule: Q01DX005 (ip), vehicle: Klucel (hydroxypropylcellulose) (HPC)) and 0 of 6 under setting [12].
